Laboratory results published in patent US10280179B2, “Spiroquinoxaline derivatives as inhibitors of non-apoptotic regulated cell-death” (Helmholtz Zentrum Munchen—Deutches Forschungszentrum Fur …, priority 2013, dated 2019).

These compounds were tested on Pfa1 cells (assay: Cellular toxicity, same assay as Example B.4 without TAM (Example B.5)). Conditions: TC50 divided by IC50 from Example B.4.
Assay type: cell-based, mouse
Description: Cellular Toxicity of Compounds of the Invention
An estimate of the toxicity for compounds of the invention was obtained by using the same assay as described in Example B.4, but without the addition of TAM. […] Such TC50 values obtained for certain compounds disclosed herein, together with an approximate therapeutic window (estimated by dividing each TC50 by the corresponding IC50 determined from example B.4) are shown in Table 3.

Compound | Therapeutic Window (approx.. fold)
CN1CCC2(CC1)Nc1ccccc1N=C2NCc1ccc(Cl)cc1 [N-213] | >100 fold
Cc1cc2c(cc1C)NC1(CCNCC1)C(NCc1ccc(Cl)cc1)=N2 [N-214] | >1000 fold
CN1CCC2(CC1)Nc1ccccc1N=C2NCc1cccc(C(F)(F)F)c1 [N-215] | >500 fold
CCCCCCCC(=O)N1CCC2(CC1)Nc1ccccc1N=C2NCc1ccccc1 [N-216] | >20 fold
Cc1cc(C)cc(CNC2=Nc3ccccc3NC23CCNCC3)c1 [N-217] | >200 fold
CC(NC1=Nc2ccccc2NC12CCNCC2)c1ccccc1 (stereo not shown) [N-218] | >100 fold
Clc1cccc(CNC2=Nc3cc4c(cc3NC23CCNCC3)OCCO4)c1 [N-219] | >50 fold
c1ccc(C(CNC2=Nc3ccccc3NC23CCNCC3)c2ccccc2)cc1 [N-220] | >200 fold
Fc1ccc(CNC2=Nc3ccccc3NC23CCNCC3)c(F)c1 [N-221] | >200 fold
CC(CCc1ccccc1)NC1=Nc2ccccc2NC12CCNCC2 (stereo not shown) [N-222] | >200 fold
Fc1cc2c(cc1F)NC1(CCNCC1)C(NCc1ccccc1)=N2 [N-223] | >1000 fold
Cc1cccc(CNC2=Nc3cc(Cl)c(Cl)cc3NC23CCNCC3)c1 [N-224] | >1000 fold
c1ccc(CCCCNC2=Nc3ccccc3NC23CCNCC3)cc1 [N-225] | >50 fold
c1ccc(CCNC2=Nc3ccccc3NC23CCNCC3)cc1 [N-226] | >200 fold
CC(C)(C)c1ccc(CNC2=Nc3ccccc3NC23CCNCC3)cc1 [N-227] | >200 fold
c1ccc(CCCNC2=Nc3ccccc3NC23CCNCC3)cc1 [N-228] | >50 fold
CN1CCC2(CC1)Nc1cc(F)c(F)cc1N=C2NCc1ccccc1 [N-229] | >50 fold
CN1CCC2(CC1)Nc1cc(Cl)c(Cl)cc1N=C2NCc1ccccc1 [N-230] | >200 fold
Fc1cccc(F)c1CNC1=Nc2ccccc2NC12CCNCC2 [N-231] | >200 fold
Cc1cc2c(cc1C)NC1(CCNCC1)C(NCc1ccc(Cl)c(Cl)c1)=N2 [N-232] | >1000 fold
Cc1cc2c(cc1C)NC1(CCN(C)CC1)C(NCc1ccccc1)=N2 [N-233] | >50 fold
CCCCCCCCN1CCC2(CC1)Nc1ccccc1N=C2NCc1ccccc1 [N-234] | >50 fold
Cc1cccc(CNC2=Nc3cc(C)c(C)cc3NC23CCNCC3)c1 [N-235] | >20 fold
Clc1cc2c(cc1Cl)NC1(CCCNCC1)C(NCc1ccccc1)=N2 (stereo not shown) [N-236] | >50 fold
CC1CC2(CCN1)Nc1ccccc1N=C2NCc1cccc(Cl)c1 (stereo not shown) [N-239] | >10 fold
CC1CC2(CCN1)Nc1ccccc1N=C2NCc1ccccc1 (stereo not shown) [N-240] | >50 fold

Compound | Therapeutic Window (approx.. fold)
Cc1cc2c(cc1C)NC1(CCNCC1)C(NCc1cccc(C(F)(F)F)c1)=N2 [N-251] | >10 fold
CC1CN(C)CCC12Nc1ccccc1N=C2NCc1ccccc1 (stereo not shown) [N-256] | >20 fold
Cc1cc2c(cc1C)NC1(CCNCC1)C(NCc1cccc(F)c1)=N2 [N-257] | >20 fold
Clc1ccc(CNC2=Nc3cc(Cl)c(Cl)cc3NC23CCNCC3)cc1Cl [N-258] | >2 fold
Fc1cc2c(cc1F)NC1(CCNCC1)C(NCc1ccccc1Cl)=N2 [N-259] | >50 fold
FC(F)(F)c1cccc(CNC2=Nc3cc(Cl)c(Cl)cc3NC23CCNCC3)c1 [N-260] | >20 fold
CCCCCCCCCCCCN1CCC2(CC1)Nc1ccccc1N=C2NCc1ccccc1 [N-261] | >20 fold
Cc1cc(C)cc(CNC2=Nc3cc(C)c(C)cc3NC23CCNCC3)c1 [N-262] | >10 fold
Clc1ccccc1CNC1=Nc2ccccc2NC12CCOCC2 [O/S-1] | >100 fold
Clc1cccc(CNC2=Nc3ccccc3NC23CCOCC3)c1 [O/S-2] | >50 fold
Clc1ccc(CNC2=Nc3ccccc3NC23CCOCC3)cc1 [O/S-3] | >50 fold
Fc1cccc(CNC2=Nc3ccccc3NC23CCOCC3)c1 [O/S-5] | >50 fold
Cc1cccc(CNC2=Nc3ccccc3NC23CCOCC3)c1 [O/S-11] | >50 fold
COc1cccc(CNC2=Nc3ccccc3NC23CCOCC3)c1 [O/S-14] | >20 fold
FC(F)(F)c1cccc(CNC2=Nc3ccccc3NC23CCOCC3)c1 [O/S-23] | >100 fold
Fc1cc(Cl)ccc1CNC1=Nc2ccccc2NC12CCOCC2 [O/S-61] | >50 fold
Clc1cccc(CCNC2=Nc3ccccc3NC23CCOCC3)c1 [O/S-79] | >50 fold
Clc1cccc(CNC2=Nc3cc(Cl)c(Cl)cc3NC23CCOCC3)c1 [O/S-94] | >200 fold
Clc1ccccc1CNC1=Nc2ccccc2NC12CCSCC2 [O/S-167] | >100 fold
Clc1cccc(CNC2=Nc3ccccc3NC23CCSCC3)c1 [O/S-168] | >200 fold
Clc1ccc(CNC2=Nc3ccccc3NC23CCSCC3)cc1 [O/S-169] | >50 fold
FC(F)(F)c1cccc(CNC2=Nc3ccccc3NC23CCSCC3)c1 [O/S-189] | >20 fold
c1ccc(CNC2=Nc3ccccc3NC23CCOCC3)cc1 [O/S-337] | >20 fold
c1ccc(CNC2=Nc3ccccc3NC23CCSCC3)cc1 [O/S-338] | >100 fold
Clc1cc2c(cc1Cl)NC1(CCOCC1)C(NCc1ccccc1)=N2 [O/S-339] | >1000 fold
Cc1cc2c(cc1C)NC1(CCOCC1)C(NCc1ccccc1)=N2 [O/S-340] | >100 fold

Compound | Therapeutic Window (approx.. fold)
Fc1cccc(F)c1CNC1=Nc2ccccc2NC12CCOCC2 [O/S-341] | >50 fold
Cc1cccc(CNC2=Nc3cc(Cl)c(Cl)cc3NC23CCOCC3)c1 [O/S-342] | >500 fold
c1ccc(CCCNC2=Nc3ccccc3NC23CCOCC3)cc1 [O/S-343] | >20 fold
Cc1cc(C)cc(CNC2=Nc3ccccc3NC23CCOCC3)c1 [O/S-344] | >50 fold
Clc1ccc(CNC2=Nc3ccccc3NC23CCOCC3)cc1Cl [O/S-345] | >500 fold
Fc1cc2c(cc1F)NC1(CCOCC1)C(NCc1ccccc1)=N2 [O/S-346] | >200 fold
c1ccc(CCNC2=Nc3ccccc3NC23CCOCC3)cc1 [O/S-347] | >20 fold
CC(NC1=Nc2ccccc2NC12CCOCC2)c1ccccc1 (stereo not shown) [O/S-348] | >20 fold
Clc1cc2c(cc1Cl)NC1(CCSCC1)C(NCc1ccccc1)=N2 [O/S-349] | >200 fold
CC(C)(C)c1ccc(CNC2=Nc3ccccc3NC23CCOCC3)cc1 [O/S-350] | >100 fold
Fc1cccc(F)c1CNC1=Nc2ccccc2NC12CCSCC2 [O/S-351] | >100 fold
c1ccc(C(CNC2=Nc3ccccc3NC23CCOCC3)c2ccccc2)cc1 [O/S-352] | >50 fold
CC(CCc1ccccc1)NC1=Nc2ccccc2NC12CCOCC2 (stereo not shown) [O/S-353] | >50 fold
Clc1ccc(CNC2=Nc3ccccc3NC23CCOCC3)c(Cl)c1 [O/S-354] | >200 fold
Fc1ccc(CNC2=Nc3ccccc3NC23CCOCC3)c(F)c1 [O/S-355] | >20 fold
c1ccc(CCCNC2=Nc3ccccc3NC23CCSCC3)cc1 [O/S-356] | >20 fold
Cc1cc(C)cc(CNC2=Nc3ccccc3NC23CCSCC3)c1 [O/S-357] | >20 fold
c1ccc(CCCCNC2=Nc3ccccc3NC23CCOCC3)cc1 [O/S-358] | >5 fold
Fc1ccc(CNC2=Nc3ccccc3NC23CCSCC3)c(F)c1 [O/S-359] | >5 fold
O=S1(=O)CCC2(CC1)Nc1ccccc1N=C2NCc1ccccc1 [O/S-363] | >5 fold
FC1(F)Oc2cc3c(cc2O1)NC1(CCOCC1)C(NCc1ccccc1)=N3 [O/S-366] | >200 fold
CC(NC1=Nc2ccccc2NC12CCSCC2)c1ccccc1 (stereo not shown) [O/S-367] | >20 fold
c1ccc(CCNC2=Nc3ccccc3NC23CCSCC3)cc1 [O/S-368] | >10 fold
Cc1cc2c(cc1C)NC1(CCSCC1)C(NCc1ccccc1)=N2 [O/S-369] | >100 fold
